Measurements taken from PMC7002685, “Inhibition of vascular calcification by inositol phosphates derivatized with ethylene glycol oligomers” (Nature Communications, 2020).
Several values for one entry are separate records, joined by “and”; a condition that tells them apart may be missing. Identical values can stand only once.

Assay: In vitro ionized human serum calcium
Assay type: physicochemical
Conditions: replicates
Description: One potential side effect of inositol phosphate-based drugs is toxicity due to chelation of ionized serum calcium. […] At 100 µM (OEG2)2-IP4, 96 ± 2% of control serum-ionized calcium was measured.
To assess reduction in ionized serum calcium, increasing concentrations of test compounds were incubated in human serum (Human AB serum, off-the-clot, HSER-ABPM; LuBioScience GmbH, Zurich, Switzerland) at RT and free ionized calcium levels were measured subsequently by the o-cresolphthalein method using the calcium colorimetric assay.

Row | Compound | ionized human serum calcium (Figure 4l) (Concentration 100 μM) | ionized human serum calcium (Figure 4l) (Concentration 300 μM) | ionized human serum calcium (Figure 4l) (Concentration 600 μM) | ionized human serum calcium (Figure 4l) (Concentration 1000 μM)
1 | COCCOCCO[C@@H]1[C@@H](OP(=O)(O)O)[C@H](OCCOCCOC)[C@@H](OP(=O)(O)O)[C@@H](OP(=O)(O)O)[C@H]1OP(=O)(O)O [(OEG2)2-IP4, 4,6-Di-O-(methoxy-diethyleneglycol)-myo-inositol-1,2,3,5-tetrakis(phosphate)] | 95.8158 and 93.7695 and 97.7416 | 94.5035 and 88.6419 and 88.9281 | 87.0648 and 84.2142 and 81.1428 | 78.3204 and 76.7951 and 74.0862
2 | O=P(O)(O)O[C@H]1[C@H](OP(=O)(O)O)[C@@H](OP(=O)(O)O)[C@H](OP(=O)(O)O)[C@@H](OP(=O)(O)O)[C@H]1OP(=O)(O)O [IP6, myo-Inositol hexakisphosphate] | 94.9032 and 92.4158 and 96.0893 | 86.9409 and 86.4165 and 87.7304 | 79.0817 and 79.8261 and 78.3216 | 63.3946 and 70.0991 and 66.5065
